These are yes or no findings as the source states them, for the method shown. In cells and extracts the contact can be indirect. Some binding calls cover weakened binding; strength is not graded here.

Protein sequences, listed by entry. Tags and fused reporters are not part of them. Lines headed by an entry give the natural chain unless they say otherwise; changes in a name come on top. Chains listed by the source or under a name are the forms on record and can include a tag or linker. Residues count along the entry.
UniProt Q9NYV8: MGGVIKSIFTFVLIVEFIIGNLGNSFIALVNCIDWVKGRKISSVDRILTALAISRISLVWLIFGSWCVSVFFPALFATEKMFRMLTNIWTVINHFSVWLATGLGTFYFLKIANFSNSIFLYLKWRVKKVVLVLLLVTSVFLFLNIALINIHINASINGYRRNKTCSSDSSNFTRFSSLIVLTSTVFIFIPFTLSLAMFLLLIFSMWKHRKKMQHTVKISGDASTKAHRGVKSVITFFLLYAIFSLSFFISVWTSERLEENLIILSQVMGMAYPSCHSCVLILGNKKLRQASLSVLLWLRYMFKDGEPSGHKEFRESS
TAS2R14 CT-5A (Ala for the Ser residues of the cytoplasmic tail), N-terminal FLAG-tagged (Q9NYV8, form named): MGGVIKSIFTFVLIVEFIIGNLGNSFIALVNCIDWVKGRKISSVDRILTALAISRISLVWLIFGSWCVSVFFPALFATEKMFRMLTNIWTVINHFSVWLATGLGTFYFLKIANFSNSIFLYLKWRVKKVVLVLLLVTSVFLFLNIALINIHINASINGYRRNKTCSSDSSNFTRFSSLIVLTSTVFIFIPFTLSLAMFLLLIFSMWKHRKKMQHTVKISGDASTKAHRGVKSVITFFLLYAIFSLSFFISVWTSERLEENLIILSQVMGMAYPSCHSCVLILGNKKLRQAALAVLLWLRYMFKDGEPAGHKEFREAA

This passage reports binding results from article PMC7949105.

For test [1], the target named is WT N-terminal FLAG-tagged TAS2R14 (bitter taste 2 receptor member 14) (human) (UniProt Q9NYV8). In words: condition: only in the absence of agonist (vehicle); proximity ligation; as a1, but cells exposed to vehicle (no agonist) for 10 min at 37 °C.
Test [2] concerns the target TAS2R14 CT-5A (Ala for the Ser residues of the cytoplasmic tail), N-terminal FLAG-tagged (human) (UniProt Q9NYV8). Nature of the test: proximity ligation; HEK-293T cells co-transfected with β-arrestin2–GFP and FLAG-tagged receptor, exposed to 500 μM DPD (agonist) for 10 min at 37 °C, fixed with 4% paraformaldehyde; primary antibodies to GFP and FLAG; red PLA puncta counted as percent of cell area; signal when the two proteins are within 30 nm.

For test [3], the target named is TAS2R14 IL/CT-10A (all 10 Ala substitutions in the third intracellular loop and the cytoplasmic tail), N-terminal FLAG-tagged (human) (UniProt Q9NYV8). The description is as above.
Test [4] has as its target WT N-terminal FLAG-tagged TAS2R14 (bitter taste 2 receptor member 14) (human) (UniProt Q9NYV8). The description is as above.

For “β-arrestin2–GFP (from UniProt P32121 1-409)”, the binding entry in test [1] is recorded as “no binding”; in test [2], “no binding”; in test [3] it was “no binding”; in test [4], “binds”.
